A: 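Protease assay of ClpP1P2, read by the AMC dye that it sets free. Target: ClpP1P2, Mycobacterium tuberculosis (UniProt P9WPC5 and UniProt P9WPC3). Compounds at 50 µM. Higher reads as stronger inhibition, judged from the few compounds that gave an IC50. Most other retested compounds had strongly negative values. Of about 69,000 compounds tested this way, about 10 (0.015%) reached 50% or more in at least one test.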
B: 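Tryptophan-tRNA ligase, Mycobacterium tuberculosis (UniProt P9WFT3). Enzyme assay of tryptophanyl-tRNA synthetase; the read-out is not stated. Compounds at 10 µM. Higher most likely means stronger inhibition; the record gives no direction and few retests gave an IC50. Size under these conditions: about 65,000 compounds, about 64 of them at 50% or above in at least one test.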
C: 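Enzyme assay of the cytosolic lysyl-tRNA synthetase in 384-well plates, read by luminescence. Target: Lysine-tRNA ligase, Plasmodium falciparum 3D7 (UniProt Q8IDJ8). Tested at 30 µM. Direction is inferred from only a few compounds that gave an IC50; most scored high, so higher reads as stronger inhibition. Size under these conditions: about 69,000 compounds, about 49 of them at 50% or above in at least one test.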

Sequences of proteins named here, by UniProt entry; tags and fusion partners are left off. Residues count along the entry.
UniProt P9WPC5, whole entry: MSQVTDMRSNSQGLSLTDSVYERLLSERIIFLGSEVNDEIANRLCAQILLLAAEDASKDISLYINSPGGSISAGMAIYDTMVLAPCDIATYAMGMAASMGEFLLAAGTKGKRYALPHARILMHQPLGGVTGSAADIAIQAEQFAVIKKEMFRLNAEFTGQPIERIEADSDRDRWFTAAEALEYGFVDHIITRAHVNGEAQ
UniProt P9WPC3, whole entry partner: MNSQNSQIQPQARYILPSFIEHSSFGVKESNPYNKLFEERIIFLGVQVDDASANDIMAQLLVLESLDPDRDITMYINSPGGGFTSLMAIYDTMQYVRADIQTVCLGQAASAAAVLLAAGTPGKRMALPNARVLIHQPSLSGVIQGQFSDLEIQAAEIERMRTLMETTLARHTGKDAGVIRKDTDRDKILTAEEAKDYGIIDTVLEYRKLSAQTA
UniProt P9WFT3, whole entry: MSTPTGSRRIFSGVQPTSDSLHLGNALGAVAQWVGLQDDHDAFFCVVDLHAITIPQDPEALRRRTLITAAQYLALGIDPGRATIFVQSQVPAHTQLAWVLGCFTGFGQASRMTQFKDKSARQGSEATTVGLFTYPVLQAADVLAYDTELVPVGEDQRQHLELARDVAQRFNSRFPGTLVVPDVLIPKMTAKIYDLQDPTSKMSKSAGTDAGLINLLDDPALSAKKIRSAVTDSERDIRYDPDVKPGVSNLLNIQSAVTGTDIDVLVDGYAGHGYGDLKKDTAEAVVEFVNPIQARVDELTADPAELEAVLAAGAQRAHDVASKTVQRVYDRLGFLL
UniProt Q8IDJ8, 1-583: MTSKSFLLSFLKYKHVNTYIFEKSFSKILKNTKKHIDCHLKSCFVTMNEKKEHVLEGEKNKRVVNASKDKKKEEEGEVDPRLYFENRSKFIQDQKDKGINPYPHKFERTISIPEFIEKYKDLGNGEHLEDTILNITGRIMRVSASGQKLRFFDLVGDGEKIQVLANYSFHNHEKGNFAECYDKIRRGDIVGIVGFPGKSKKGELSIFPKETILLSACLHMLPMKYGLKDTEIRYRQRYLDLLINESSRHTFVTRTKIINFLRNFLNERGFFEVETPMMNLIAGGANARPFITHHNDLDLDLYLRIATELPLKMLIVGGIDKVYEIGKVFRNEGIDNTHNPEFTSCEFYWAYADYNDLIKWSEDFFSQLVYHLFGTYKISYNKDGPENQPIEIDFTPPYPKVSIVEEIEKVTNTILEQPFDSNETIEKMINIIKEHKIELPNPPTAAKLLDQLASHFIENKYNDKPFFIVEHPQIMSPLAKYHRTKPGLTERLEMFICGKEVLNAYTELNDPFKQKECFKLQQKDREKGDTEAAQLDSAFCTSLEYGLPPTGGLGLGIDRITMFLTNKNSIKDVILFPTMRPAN

Results are given as percent effect.
The record does not define 0% and 100%; most values in the screen are far below 50% and negative numbers occur (in some assays of this library far below -100).
This is an unselected part of the compounds tested.
A dash means the value is not listed here; it may have been measured.

| # | Compound | A | B | C |
|---|---|---|---|---|
| 1 | `c1cc(CN2CCCC2c2noc(C3CC3)n2)on1` (centres unmarked) | -7.109 | 4.479 | 3.617 |
| 2 | `CN(C)CCNC(=O)c1ccc(OC2CCN(C3CCC3)CC2)c(Cl)c1` | -2.24 | -5.717 | 2.725 |
| 3 | `Cc1ccc(CN2CC[C@H]3OCC[C@@H](C(=O)NCC4CC4)[C@@H]3C2)o1` | -14.51 | -4.231 | 2.312 |
| 4 | `Cc1nccn1C1CCCN(C(=O)Cc2cn3ccccc3n2)C1` (centres unmarked) | -12.71 | 20.84 | -1.353 |
| 5 | `Cc1nnc(NCc2cccnc2N(C)C)c(C#N)c1C` | 10.24 | 2.041 | -0.3737 |
| 6 | `CS(=O)(=O)NC1(CCc2ccc(NC(=O)C3CC3)nc2)CCCCC1` | -7.033 | 7.118 | -2.264 |
| 7 | `N#Cc1cccc(CN2C(=O)C3(CCNCC3)Nc3ccccc32)c1` | 2.944 | 0.5863 | 4.368 |
| 8 | `Cn1ccnc1-c1nc2cc(S(=O)(=O)N3CCCC3)ccc2n1C` | 4.372 | 0.136 | 5.99 |
| 9 | `CC(C)c1cc(CNC(=O)Nc2cc(F)cc(N3CCCC3)c2)on1` | -3.241 | -2.709 | 0.07574 |
| 10 | `COCCCNC(=O)c1ccccc1S(C)(=O)=O` | -6.961 | -2.545 | -1.459 |
| 11 | `CN(C)c1nc2c(c(N(C)Cc3n[nH]c4c3CCCCC4)n1)CCNC2` | -13.59 | -3.704 | 6.903 |
| 12 | `Cc1cnc(N2CCC3(CC2)CC(N(C)Cc2ccncc2)C3)nc1` | 4.337 | -0.541 | 1.643 |
| 13 | `Cc1nc(N2CCOCC2)nc2c1COCC21CCN(CC2CC2)C1` (centres unmarked) | 0.5675 | -0.7647 | 2.14 |
| 14 | `CCSc1ncccc1C(=O)NCc1ccc(N(C)C)cc1` | -1.295 | - | 6.033 |
| 15 | `Cc1cc(CN(C)C2CCCN(c3cccnn3)C2)on1` (centres unmarked) | 0.2669 | 0.5329 | -0.9344 |
| 16 | `Cc1n[nH]c2c1C(c1ccncc1)SCC(=O)N2` (centres unmarked) | 3.814 | 1.089 | -1.586 |
| 17 | `Nc1nccc(NCc2cc3n(n2)CCCN(C2CCCCC2)C3)n1` | -0.5706 | 1.234 | 1.361 |
| 18 | `CN(C)c1ccc(C(=O)N2CCCN(Cc3cscn3)CC2)nn1` | 5.081 | 12.55 | 0.9647 |
| 19 | `CN(Cc1ccccc1F)C(=O)CS(=O)(=O)Cc1ccc(Cl)c(Cl)c1` | 7.985 | -0.5473 | -1.087 |
| 20 | `COCC1c2c(cnn2C)CCN1Cc1ccco1` (centres unmarked) | -5.606 | 1.106 | -7.834 |
| 21 | `O=C1N(Cc2ccccn2)C[C@H]2CN(S(=O)(=O)c3ccccc3)CCN12` | -19.9 | -2.212 | 3.814 |
| 22 | `O=C(c1coc2ccccc12)N1CCS(=O)(=O)CC1` | -4.597 | 5.986 | 1.764 |
| 23 | `COc1ccc2c(c1)C(C(=O)N(C)CCc1cnn(C)c1)CC(=O)N2` (centres unmarked) | -6.423 | -5.094 | 2.492 |
| 24 | `O=C(C1CCCCC1)N1CCC2(CC1)CNCc1ccccc12` | -0.4467 | 1.187 | 14.75 |
| 25 | `Cn1cc(C(=O)NCc2cn3c(n2)CN(CC2CCOCC2)CC3)cn1` | 0.4024 | 0.5629 | 8.707 |
| 26 | `Cc1cc(NC(=O)C(c2cccc(F)c2)N2CCOCC2)sn1` (centres unmarked) | 14.91 | 1.81 | 8.76 |
| 27 | `Cc1cc(NC(=O)CNc2cccc(OC(F)F)c2C)n(C)n1` | -1.604 | -7.67 | -4.259 |
| 28 | `CS(=O)(=O)N1CC2(CCN(Cc3ccccn3)C2)Cc2ccccc21` (centres unmarked) | -3.409 | 0.08643 | 0.4202 |
| 29 | `Cc1ccccc1CNC(=O)C1CCN(Cc2nccn2C)CC1` | -9.305 | -5.951 | 3.452 |
| 30 | `CCCc1nnc(NCCCn2nc(C)c(Cl)c2C)o1` | -8.095 | 4.026 | 0.4988 |
| 31 | `CC(C)CNC(=O)N1C[C@H]2CC[C@@]3(N=C(c4ccccc4)NC3=O)[C@H]2C1` | -7.036 | 0.6509 | 3.697 |
| 32 | `Cc1nn(C)c2c(NCc3ccncc3)nc(C3CC3)nc12` | 12.45 | 4.588 | 12.81 |
| 33 | `COc1cccc(-n2nnc(C(=O)N3CCNC(=O)C3)c2C)c1` | 5.395 | 0.2227 | 1.782 |
| 34 | `Cc1nn(CC(=O)NCCc2ccncc2)c(=O)n1Cc1ccccc1` | -4.418 | -1.083 | 7.159 |
| 35 | `COCC(=O)NCCC(=O)N1CCN(S(=O)(=O)c2cccc(Br)c2)CC1` | 2.336 | -5.121 | 8.119 |
| 36 | `NS(=O)(=O)c1ccc(NCc2ccco2)c2ncccc12` | 0.3218 | 6.524 | -4.226 |
| 37 | `Cc1ccc(NCc2cn3c(n2)CN(Cc2ccoc2)CC3)nn1` | -1.734 | 3.111 | -1.269 |
| 38 | `Cc1nn(C)c(C)c1CN(C)C(=O)c1cccc(CCC(C)(C)O)c1` | 3.47 | -5.901 | 6.006 |
| 39 | `O=C(NCCOc1ccc(F)cc1)C1CCCN(C(=O)C2CC2)C1` (centres unmarked) | 8.102 | -4.757 | -0.417 |
| 40 | `CCc1ncc(C(=O)NCC2CCN(Cc3ccncc3)CC2)cn1` | -4.605 | -0.6717 | -0.2088 |
| 41 | `CC(O)CN1CCN(Cc2nnc(C3CC3)o2)CC1` (centres unmarked) | 20.09 | -5.271 | 2.714 |
| 42 | `O=C(c1cccnc1)N1CCC2(CNS(=O)(=O)c3cnccc3O2)C1` (centres unmarked) | 6.157 | 17.55 | -2.218 |
| 43 | `Cc1nonc1NC(=O)c1ccc(F)c(COCC2CC2)c1` | 8.887 | 18.03 | -2.774 |
| 44 | `O=C(NCc1ccco1)[C@@]12CCO[C@@H]1CCN(Cc1ccccn1)C2` | -0.5287 | 1.302 | 6.047 |
| 45 | `O=C(COc1ccc(F)cc1F)N1CCOCC(O)(CN2CCCC2)C1` (centres unmarked) | -8.165 | 0.2721 | 8.356 |
| 46 | `COCCN1CCC2(CCN(c3ncccn3)CC2)C1=O` | -2.272 | 8.126 | -7.428 |
| 47 | `Cc1oc(-c2nc(C#N)c(NC(C)C)o2)cc1S(=O)(=O)N1CCCCC1` | -5.3 | -1.471 | -1.091 |
| 48 | `O=C(Cn1cc(-c2ccccc2)cn1)N1CCNC1=O` | -8.415 | 0.306 | -2.341 |
| 49 | `Cc1ccc(-c2noc(C(C)NS(C)(=O)=O)n2)cc1` (centres unmarked) | 18.5 | 8.312 | 0.8989 |
| 50 | `Cc1nc2cc(=O)[nH]n2c(C)c1CNC(=O)C(C)(C)c1ccccc1` | 1.577 | 0.3027 | 1.477 |
| 51 | `CC(=O)N(C)c1nc(CN2CCOC(Cn3cc(C)cn3)C2)cs1` (centres unmarked) | 20.17 | 7.271 | 4.019 |
| 52 | `CC(=O)NC1CCCN(C(=O)NCc2cc[nH]n2)C1` (centres unmarked) | -38.4 | -4.475 | 3.019 |
| 53 | `COc1c(CNCC(=O)N2CCN(C)CC2)c(C(C)C)nn1C` | 16.31 | -0.9084 | 3.395 |
| 54 | `Cc1cc(CN2CCN(C(=O)C(C)C)[C@@H]3CS(=O)(=O)C[C@@H]32)ccc1F` | -1.827 | 1.137 | 6.602 |
| 55 | `CCN1CC(C(=O)N2CC(Oc3ccccc3Cl)C2)CCC1=O` (centres unmarked) | -10.49 | 2.828 | 6.142 |
| 56 | `O=C(NCc1ccccn1)c1nnn(-c2ccc(Br)cc2)n1` | -1.288 | 4.079 | 1.759 |

For reference, 3 entries once more:

| Compound | A | B | C |
|---|---|---|---|
| `Cc1n[nH]c2c1C(c1ccncc1)SCC(=O)N2` (centres unmarked) | 3.814 | 1.089 | -1.586 |
| `Cc1nonc1NC(=O)c1ccc(F)c(COCC2CC2)c1` | 8.887 | 18.03 | -2.774 |
| `Cc1nn(C)c2c(NCc3ccncc3)nc(C3CC3)nc12` | 12.45 | 4.588 | 12.81 |

The values are deposited in ChEMBL (CHEMBL3988442, “University of Dundee, Small-Polar-MMV Screening Library” (2021)).